The assay addresses Flag-APH-2 (antisense protein of HTLV-2) (HTLV-2). Kind of assay: co-IP; HEK293T cells transfected with 1 ug of each expression vector, harvested after 24 h; lysed in 10 mM Tris-HCl pH 7.5, 5 mM EDTA, 150 mM NaCl, 1% Triton X-100; Flag-tagged protein precipitated with anti-Flag antibody overnight at 4°C on Dynabeads Protein G or A; partner detected by western ….

These are yes or no findings as the source states them, for the method shown. In cells and extracts the contact can be indirect.

B1: p52 (protein, UniProt Q00653 1-454)
chain: MESCYNPGLDGIIEYDDFKLNSSIVEPKEPAPETADGPYLVIVEQPKQRGFRFRYGCEGPSHGGLPGASSEKGRKTYPTVKICNYEGPAKIEVDLVTHSDPPRAHAHSLVGKQCSELGICAVSVGPKDMTAQFNNLGVLHVTKKNMMGTMIQKLQRQRLRSRPQGLTEAEQRELEQEAKELKKVMDLSIVRLRFSAFLRASDGSFSLPLKPVISQPIHDSKSPGASNLKISRMDKTAGSVRGGDEVYLLCDKVQKDDIEVRFYEDDENGWQAFGDFSPTDVHKQYAIVFRTPPYHKMKIERPVTVFLQLKRKRGGDVSDSKQFTYYPLVEDKEEVQRKRRKALPTFSQPFGGGSHMGGGSGGAAGGYGGAGGGGSLGFFPSSLAYSPYQSGAGPMGCYPGGGGGAQMAATVPSRDSGEEAAEPSAPSRTPQCEPQAPEMLQRAREYNARLFGLA
On to B1, for which the binding entry is “no binding”.

Source of the values: paper PMC6581700.
